The results in this text go back to publication PMC10698143.

The target of experiment [1] is T1, Macrophage migration inhibitory factor (MIF) (human (endogenous in RCTE)) (UniProt P14174).
T1 sequence: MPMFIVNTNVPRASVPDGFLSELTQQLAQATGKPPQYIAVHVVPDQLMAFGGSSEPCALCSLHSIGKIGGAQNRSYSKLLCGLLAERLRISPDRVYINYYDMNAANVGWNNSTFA
Kind of experiment: peptide or protein array + affinity purification with mass spectrometry; hits named jointly for the HuProt protein chip screen and the MIF IP-MS screen; which screen found which kinase is not told.

Experiment [2] concerns the target T1, Macrophage migration inhibitory factor (MIF) (human (endogenous in RCTE)). Kind of experiment: affinity purification with mass spectrometry; RCTE cell lysates immunoprecipitated with MIF antibody, SDS-PAGE, in-gel tryptic digestion, LC-MS/MS.

No constants are given. Whether binding was seen depends on the method and setting. In cells and extracts the contact can be indirect. A yes stands for co-enrichment or nearness to the bait. Other partners may have been found.

B1: PRKD2 (enzyme, UniProt Q9BZL6 1-878)
chain: MATAPSYPAGLPGSPGPGSPPPPGGLELQSPPPLLPQIPAPGSGVSFHIQIGLTREFVLLPAASELAHVKQLACSIVDQKFPECGFYGLYDKILLFKHDPTSANLLQLVRSSGDIQEGDLVEVVLSASATFEDFQIRPHALTVHSYRAPAFCDHCGEMLFGLVRQGLKCDGCGLNYHKRCAFSIPNNCSGARKRRLSSTSLASGHSVRLGTSESLPCTAEELSRSTTELLPRRPPSSSSSSSASSYTGRPIELDKMLLSKVKVPHTFLIHSYTRPTVCQACKKLLKGLFRQGLQCKDCKFNCHKRCATRVPNDCLGEALINGDVPMEEATDFSEADKSALMDESEDSGVIPGSHSENALHASEEEEGEGGKAQSSLGYIPLMRVVQSVRHTTRKSSTTLREGWVVHYSNKDTLRKRHYWRLDCKCITLFQNNTTNRYYKEIPLSEILTVESAQNFSLVPPGTNPHCFEIVTANATYFVGEMPGGTPGGPSGQGAEAARGWETAIRQALMPVILQDAPSAPGHAPHRQASLSISVSNSQIQENVDIATVYQIFPDEVLGSGQFGVVYGGKHRKTGRDVAVKVIDKLRFPTKQESQLRNEVAILQSLRHPGIVNLECMFETPEKVFVVMEKLHGDMLEMILSSEKGRLPERLTKFLITQILVALRHLHFKNIVHCDLKPENVLLASADPFPQVKLCDFGFARIIGEKSFRRSVVGTPAYLAPEVLLNQGYNRSLDMWSVGVIMYVSLSGTFPFNEDEDINDQIQNAAFMYPASPWSHISAGAIDLINNLLQVKMRKRYSVDKSLSHPWLQEYQTWLDLRELEGKMGERYITHESDDARWEQFAAEHPLPGSGLPTDRDLGGACPPQDHDMQGLAERISVL
Regarding B1, in experiment [1], the binding result is on record as “binds”.

B2: phosphatidylinositol-5-phosphate 4-kinase type 2 alpha (PIP4K2a) (enzyme, UniProt P48426 1-406)
chain: MATPGNLGSSVLASKTKTKKKHFVAQKVKLFRASDPLLSVLMWGVNHSINELSHVQIPVMLMPDDFKAYSKIKVDNHLFNKENMPSHFKFKEYCPMVFRNLRERFGIDDQDFQNSLTRSAPLPNDSQARSGARFHTSYDKRYIIKTITSEDVAEMHNILKKYHQYIVECHGITLLPQFLGMYRLNVDGVEIYVIVTRNVFSHRLSVYRKYDLKGSTVAREASDKEKAKELPTLKDNDFINEGQKIYIDDNNKKVFLEKLKKDVEFLAQLKLMDYSLLVGIHDVERAEQEEVECEENDGEEEGESDGTHPVGTPPDSPGNTLNSSPPLAPGEFDPNIDVYGIKCHENSPRKEVYFMAIIDILTHYDAKKKAAHAAKTVKHGAGAEISTVNPEQYSKRFLDFIGHILT
B2: the binding entry in experiment [2] is reported as “binds”.
